Test results as given in patent US11104883B2, “SC-beta cells and compositions and methods for generating the same” (President and Fellows of Harvard College, priority 2013, dated 2021).
At least one compound was matched to its structure with a doubt left.

Test system: SC-β cells
Assay: Anti-diabetic drug treatment of plated SC-β cells, secreted human insulin ELISA
Type: cell-based
Settings: 2 and 20 mM glucose
Experimental: FIG. 16A is a schematic illustration of the utility of SC-β cells for treating diabetes or screening drugs to improve function or replication. FIG. 16B is a table listing diabetic drugs investigated and their general therapeutic category. FIG. 16C is a graph showing ELISA measurements of secreted human insulin from plated SC-β cells treated with the indicated drugs in 2 and 20 mM glucose. Indicated p values compare the insulin value in 20 mM glucose between the drug and the control. FIG. 16D is an immunofluorescence image of dispersed and plated SC-β cells stained with DAPI (blue), C-peptide (green), and Ki67 (red) without treatment. FIG. 16E is an immunofluorescence image of dispersed and plated SC-β cells stained with DAPI (blue), C-peptide (green), and Ki67 (red) treated with prolactin for 48 hours. […] FIG. 16G is a graph illustrating fasting blood glucose measurements of Akita mice transplanted with SC-β cells (n=6) or PH cells (n=6). *p<0.05 comparing the two cell groups on the same day. FIG. 16H is a graph illustrating blood glucose measurements from progressively diabetic Akita mice transplanted with SC-β cells or PH cells. Measurements were taken before (white bars) and 20 min after (black bars) a glucose injection of mice transplanted 2 weeks prior. Glucose measurements were saturated at 550 mg/dL. *p<0.05 comparing the two cell groups at the same time post glucose injection. […]

CCCCCCCCCCCCCCCC(=O)N[C@@H](CCC(=O)NCCCC[C@H](NC(=O)[C@H](C)NC(=O)[C@H](C)NC(=O)[C@H](CCC(N)=O)NC(=O)CNC(=O)[C@H](CCC(=O)O)NC(=O)[C@H](CC(C)C)NC(=O)[C@H](Cc1ccc(O)cc1)NC(=O)[C@H](CO)NC(=O)[C@H](CO)NC(=O)[C@@H](NC(=O)[C@H](CC(=O)O)NC(=O)[C@H](CO)NC(=O)[C@@H](NC(=O)[C@H](Cc1ccccc1)NC(=O)[C@@H](NC(=O)CNC(=O)[C@H](CCC(=O)O)NC(=O)[C@H](C)NC(=O)[C@@H](N)Cc1cnc[nH]1)[C@@H](C)O)[C@@H](C)O)C(C)C)C(=O)N[C@@H](CCC(=O)O)C(=O)N[C@@H](Cc1ccccc1)C(=O)N[C@H](C(=O)N[C@@H](C)C(=O)N[C@@H](Cc1c[nH]c2ccccc12)C(=O)N[C@@H](CC(C)C)C(=O)N[C@H](C(=O)N[C@@H](CCCNC(=N)N)C(=O)NCC(=O)N[C@@H](CCCNC(=N)N)C(=O)NCC(=O)O)C(C)C)[C@@H](C)CC)C(=O)O [liraglutide]
insulin secretion in vitro following a glucose challenge: increasing insulin secretion
